According to patent US20030009023A1 (US Dept. of Health and Human Services, published 2003):
Results are given in words; binding and its absence hold for the method and conditions named. For some assays here: Binding seen in cells or lysates may run through a third protein. Some binding calls cover weakened binding; strength is not graded here. For some assays here: Where a sequence is shown, tags or fusion partners need not be part of it.

Experiments:
[1] = molecular target: T1, HA-tagged murine Wnt-1 (mouse, UniProt P04426 28-370); assay: co-immunoprecipitation from lysates of COS7 cells co-transfected with Wnt-1 and deletion constructs
T1 construct: also called pLNCWnt1HA; pLNCW1-HA; not shown: hemagglutinin (HA) tag near the C-terminus
T1 sequence (looked up): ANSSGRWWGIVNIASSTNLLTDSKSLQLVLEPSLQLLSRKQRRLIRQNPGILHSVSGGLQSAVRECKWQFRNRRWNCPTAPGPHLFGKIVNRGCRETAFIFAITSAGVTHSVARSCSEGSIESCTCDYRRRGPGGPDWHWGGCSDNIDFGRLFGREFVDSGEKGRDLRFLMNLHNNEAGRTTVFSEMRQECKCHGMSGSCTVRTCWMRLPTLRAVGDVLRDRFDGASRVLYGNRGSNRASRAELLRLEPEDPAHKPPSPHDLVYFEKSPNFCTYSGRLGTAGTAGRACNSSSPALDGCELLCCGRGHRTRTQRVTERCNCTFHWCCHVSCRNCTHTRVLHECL

[2] = molecular target: T2, Xwnt-8^myc (Xenopus, UniProt P28026 23-358, limits assumed); assay: co-immunoprecipitation with anti-myc antibody
T2 construct: also called myc-tagged XWnt-8
T2 sequence (looked up): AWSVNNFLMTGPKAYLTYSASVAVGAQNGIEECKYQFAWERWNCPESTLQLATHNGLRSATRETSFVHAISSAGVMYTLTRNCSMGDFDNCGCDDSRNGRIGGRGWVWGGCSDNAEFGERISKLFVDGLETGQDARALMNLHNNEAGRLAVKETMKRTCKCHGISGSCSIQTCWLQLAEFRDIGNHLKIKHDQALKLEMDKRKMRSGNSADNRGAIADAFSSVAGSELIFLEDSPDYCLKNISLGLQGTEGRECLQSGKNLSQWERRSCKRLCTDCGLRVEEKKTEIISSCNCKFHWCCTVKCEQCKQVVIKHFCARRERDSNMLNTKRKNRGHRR

[3] = molecular target: T3, HA-tagged mouse Wnt-5A (mouse) (UniProt P22725); assay: co-immunoprecipitation (referred to)
T3 sequence (looked up): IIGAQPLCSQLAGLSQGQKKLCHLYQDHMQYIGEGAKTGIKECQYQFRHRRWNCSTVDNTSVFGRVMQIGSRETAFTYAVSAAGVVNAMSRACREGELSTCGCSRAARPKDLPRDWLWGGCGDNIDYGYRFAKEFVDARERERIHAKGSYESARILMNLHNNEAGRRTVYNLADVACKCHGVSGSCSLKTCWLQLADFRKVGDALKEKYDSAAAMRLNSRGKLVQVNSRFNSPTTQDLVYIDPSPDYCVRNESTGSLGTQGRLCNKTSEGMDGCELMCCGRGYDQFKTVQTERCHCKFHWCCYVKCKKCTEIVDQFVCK

[4] = molecular target: T2, Xwnt-8^myc; assay: co-immunoprecipitation from COS7 cell lysates
[5] = molecular target: T2, Xwnt-8^myc; assay: co-immunoprecipitation after in vitro cotranslation
[6] = molecular target: T3, HA-tagged mouse Wnt-5A (mouse); assay: co-immunoprecipitation with different washing conditions
[7] = molecular target: T2, Xwnt-8^myc; assay: co-immunoprecipitation; reticulocyte lysate with microsomal membranes and transfected COS cells
[8] = molecular target: T3, HA-tagged mouse Wnt-5A (mouse); assay: anti-HA immunoprecipitation of co-transfected COS7 lysates, immunoblot with N374-PEP

Measured: binding

B1: Frzb deletion construct delta c-term (protein)
chain: AACEPVRIPLCKSLPWNMTKMPNHLHHSTQANAILAIEQFEGLLGTHCSPDLLFFLCAMYAPICTIDFQHEPIKPCKSVCERARQGCEPILIKYRHSWPESLACEELPVYDRGVCISPEAIVTADGANSNSRQARN
binds: [1]

B2: bovine Frzb (other)
chain: AACEPVRIPLCKSLPWNMTKMPNHLHHSTQANAILAIEQFEGLLGTHCSPDLLFFLCAMYAPICTIDFQHEPIKPCKSVCERARQGCEPILIKYRHSWPESLACEELPVYDRGVCISPEAIVTADGADFPMDSSNGNCRGASSERCKCKPVRATQKTYFRNNYNYVIRAKVKEIKTKCHDVTAVVEVKEILKASLVNIPRETVNLYTSSGCLCPPLNVNEEYLIMGYEDEERSRLLLVEGSIAEKWKDRLGKKVKRWDMKLRHLGLNTSDSSHSDSTQSQKPGRNSNSRQARN
notes: Full-length bovine Frzb expressed from pcDNA3 (pFrzb) in COS7 cells, or translated in vitro with microsomal membranes, or from injected mRNA; also called Bfrzb; BFrzb
binds: [2] | [3] | [4] | [5] | [6] | [7] | [8]
